Measurements reported in PubChem BioAssay AID1259300 (Sanger Institute, 2017)

Assay: 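siRNA screen of kinases and common colorectal cancer mutant genes, alone or with drugs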 (primary screen)
Cells: HCT15 colorectal cancer cells
Reagent: siRNA pool against human genes
Conditions: anchor drug or DMSO vehicle added 24 h after seeding: BYL719 1 µM, cetuximab 5 µg/ml, trametinib 10 nM; drug doses chosen to barely affect viability alone
Detection: 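Replicate-mean viability relative to non-targeting pool control with robust z-score for knock-down without drug; per-drug synergy scores for BYL719 (1 µM), cetuximab (5 µg/ml), trametinib (10 nM)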
Direction: viability z-score, siRNA alone: higher = more viable cells after knock-down; viability vs non-targeting, siRNA alone: higher = more viable cells; synergy score with BYL719 and synergy score with cetuximab and synergy score with trametinib: higher = stronger synergy of knock-down with drug
Call rule: 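Called active (essential) if viability z-score with knock-down alone falls below -3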
Calls: active = essential: knock-down alone lowers viability (z below -3); inactive = no strong viability loss with knock-down alone
In all, the deposit lists 794 reagents; shown is an unselected part. Over the whole deposit, 18 (2.3%) were called active. 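Calls rest on knock-down alone, not drug synergy; depositor treated synergy scores above 0.15 as synergistic; drug doses alone had little viability effect.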 Unmarked entries are inactive. Viability is capped at 1. No sequences are given here. The record does not give: the amount of reagent, the time to read-out.

gene | viability z-score, siRNA alone | viability vs non-targeting, siRNA alone | synergy score with BYL719 | synergy score with cetuximab | synergy score with trametinib
PGK1 (phosphoglycerate kinase 1) | -0.769 | 0.899 | 0.153 | 0.0463 | 0.107
CTNNB1 (catenin beta 1) | -1.28 | 0.861 | 0.125 | 0.0578 | -0.088
NEK11 (NIMA related kinase 11) | -1.13 | 0.873 | 0.178 | -0.101 | 0.0284
PRKAA1 (protein kinase AMP-activated catalytic subunit alpha 1) | 0.625 | 1 | 0.0686 | 0 | 0.0163
MUSK (muscle associated receptor tyrosine kinase) | 0.625 | 1 | 0.265 | 0.157 | 0.264
TAB1 (TGF-beta activated kinase 1 (MAP3K7) binding protein 1) | -0.0575 | 0.95 | -0.0404 | -0.0496 | -0.143
MAPK7 (mitogen-activated protein kinase 7) | 0.625 | 1 | 0.147 | 0 | -0.0128
MAPK9 (mitogen-activated protein kinase 9) | 0.0192 | 0.956 | 0.135 | -0.00935 | -0.117
PRKCI (protein kinase C iota) | -0.298 | 0.933 | 0.205 | -0.0144 | 0.035
MAP3K2 (mitogen-activated protein kinase kinase kinase 2) | -0.724 | 0.902 | 0.0457 | -0.0235 | -0.0606
PTEN (phosphatase and tensin homolog) | -1.54 | 0.843 | -0.0874 | -0.0644 | -0.142
MAST2 (microtubule associated serine/threonine kinase 2) | 0.625 | 1 | 0.209 | 0.0717 | 0.0538
CAMK2G (calcium/calmodulin dependent protein kinase II gamma) | 0.251 | 0.973 | 0.186 | 0.0637 | -0.0128
BLK (BLK proto-oncogene, Src family tyrosine kinase) | 0.625 | 1 | 0.0891 | 0.00373 | -0.0218
PRKCG (protein kinase C gamma) | 0.625 | 1 | 0.298 | 0.159 | -0.0344
ERBB2 (erb-b2 receptor tyrosine kinase 2) | 0.406 | 0.984 | 0.134 | 0.0671 | 0.0362
AK1 (adenylate kinase 1) | 0.625 | 1 | 0.113 | 0.0149 | -0.0693
RTN4 (reticulon 4) | 0.625 | 1 | 0.133 | 0.037 | -0.0984
HK2 (hexokinase 2) | -0.391 | 0.926 | 0.252 | 0.105 | 0.0527
IP6K2 (inositol hexakisphosphate kinase 2) | 0.625 | 1 | 0.149 | 0.19 | -0.0984
RPS6KA1 (ribosomal protein S6 kinase A1) | 0.625 | 1 | 0.187 | 0.0677 | 0.0541
CLK1 (CDC like kinase 1) | -0.387 | 0.926 | 0.0822 | -0.0736 | -0.0617
SOX9 (SRY-box transcription factor 9) | -1.39 | 0.854 | 0.114 | -0.146 | -0.0488
PRKAG2 (protein kinase AMP-activated non-catalytic subunit gamma 2) | 0.564 | 0.996 | 0.0935 | -0.00444 | -0.0679
JAK3 (Janus kinase 3) | 0.625 | 1 | 0.0656 | 0 | -0.0984
SGK2 (serum/glucocorticoid regulated kinase 2) | 0.625 | 1 | 0.195 | 0 | -0.0741
ATP23 | 0.625 | 1 | 0.125 | 0.0238 | -0.0984
PRKAG3 (protein kinase AMP-activated non-catalytic subunit gamma 3) | -3.85 (active) | 0.674 | 0.0082 | -0.0658 | -0.106
RIPK1 (receptor interacting serine/threonine kinase 1) | 0.614 | 0.999 | 0.11 | 0.0514 | -0.0554
CASK (calcium/calmodulin dependent serine protein kinase) | 0.512 | 0.992 | 0.242 | 0.0798 | -0.0364
LIMK1 (LIM domain kinase 1) | -0.00148 | 0.954 | 0.0794 | 0.0156 | -0.139
PANK4 (pantothenate kinase 4 (inactive)) | -1.86 | 0.819 | 0.0666 | -0.0295 | -0.127
PIP5KL1 (phosphatidylinositol-4-phosphate 5-kinase like 1) | 0.191 | 0.968 | 0.0694 | 0.0461 | -0.0908
CDK3 (cyclin dependent kinase 3) | 0.0808 | 0.96 | 0.26 | 0.0689 | -0.109
ACVR1B (activin A receptor type 1B) | 0.356 | 0.98 | 0.00052 | 0.0177 | -0.0585
CRKL (CRK like proto-oncogene, adaptor protein) | 0.25 | 0.973 | 0.105 | -0.0225 | 0.0605
EPHB6 (EPH receptor B6) | 0.625 | 1 | 0.0116 | 0.038 | -0.0594
NEK7 (NIMA related kinase 7) | 0.625 | 1 | 0.123 | 0.0299 | -0.0984
CASP8 (caspase 8) | 0.625 | 1 | -0.0611 | 0.00722 | -0.0984
CDK2 (cyclin dependent kinase 2) | -0.28 | 0.934 | 0.097 | -0.0319 | -0.158
TTK (TTK protein kinase) | -1.18 | 0.869 | 0.0541 | 0.117 | -0.142
EPHA4 (EPH receptor A4) | 0.321 | 0.978 | 0.111 | 0.0618 | 0.0557
RPS6KA6 (ribosomal protein S6 kinase A6) | 0.625 | 1 | 0.103 | 0 | -0.0884
WNK1 (WNK lysine deficient protein kinase 1) | 0.625 | 1 | 0.0696 | 0.065 | -0.0984
TAOK1 (TAO kinase 1) | 0.625 | 1 | 0.0372 | 0 | -0.0522
CSNK1A1L (casein kinase 1 alpha 1 like) | 0.457 | 0.988 | 0.0897 | 0.102 | -0.109
CAMKV (CaM kinase like vesicle associated) | 0.625 | 1 | 0.143 | 0.108 | -0.0984
BRWD1 (bromodomain and WD repeat domain containing 1) | 0.625 | 1 | 0.223 | 0.0998 | -0.0978
EPHA3 (EPH receptor A3) | 0.625 | 1 | 0.164 | 0 | 0.0768
MAST3 (microtubule associated serine/threonine kinase 3) | -0.446 | 0.922 | -0.07 | 0.0611 | -0.0767
GUCY2F (guanylate cyclase 2F, retinal) | 0.625 | 1 | 0.119 | 0.022 | -0.0984
MAP3K1 (mitogen-activated protein kinase kinase kinase 1) | -0.312 | 0.932 | 0.0956 | 0.0349 | -0.15
CLK2 (CDC like kinase 2) | 0.625 | 1 | 0.0997 | 0 | -0.0095
PIP4K2B (phosphatidylinositol-5-phosphate 4-kinase type 2 beta) | 0.512 | 0.992 | 0.26 | -0.00816 | -0.0684
DAPK1 (death associated protein kinase 1) | -0.773 | 0.898 | 0.0562 | 0.0374 | -0.164
FGFRL1 (fibroblast growth factor receptor like 1) | 0.542 | 0.994 | 0.194 | 0.0447 | 0.0711
PKDCC (protein kinase domain containing, cytoplasmic) | 0.625 | 1 | 0.115 | 0.0232 | -0.00208
SPEG (striated muscle enriched protein kinase) | 0.625 | 1 | 0.0404 | 0 | -0.0669
DCK (deoxycytidine kinase) | -1.32 | 0.858 | 0.0555 | -0.0242 | 0.108
PRKAB2 (protein kinase AMP-activated non-catalytic subunit beta 2) | -1.74 | 0.828 | 0.112 | -0.0178 | -0.0951
SIK1 (salt inducible kinase 1) | 0.625 | 1 | 0.139 | 0.0493 | 0.0322
CREBBP (CREB binding lysine acetyltransferase) | -1.98 | 0.81 | 0.283 | 0.0835 | 0.106
CAMK1G (calcium/calmodulin dependent protein kinase IG) | -1.81 | 0.823 | -0.15 | -0.118 | -0.142

Laid out differently: entries from further up.
{"gene":"MAPK7 (mitogen-activated protein kinase 7)","viability z-score, siRNA alone":0.625,"viability vs non-targeting, siRNA alone":1,"synergy score with BYL719":0.147,"synergy score with cetuximab":0,"synergy score with trametinib":-0.0128}
{"gene":"MAPK9 (mitogen-activated protein kinase 9)","viability z-score, siRNA alone":0.0192,"viability vs non-targeting, siRNA alone":0.956,"synergy score with BYL719":0.135,"synergy score with cetuximab":-0.00935,"synergy score with trametinib":-0.117}
{"gene":"PRKCI (protein kinase C iota)","viability z-score, siRNA alone":-0.298,"viability vs non-targeting, siRNA alone":0.933,"synergy score with BYL719":0.205,"synergy score with cetuximab":-0.0144,"synergy score with trametinib":0.035}
{"gene":"MAP3K2 (mitogen-activated protein kinase kinase kinase 2)","viability z-score, siRNA alone":-0.724,"viability vs non-targeting, siRNA alone":0.902,"synergy score with BYL719":0.0457,"synergy score with cetuximab":-0.0235,"synergy score with trametinib":-0.0606}
{"gene":"PTEN (phosphatase and tensin homolog)","viability z-score, siRNA alone":-1.54,"viability vs non-targeting, siRNA alone":0.843,"synergy score with BYL719":-0.0874,"synergy score with cetuximab":-0.0644,"synergy score with trametinib":-0.142}
